This assay deals with PD-L1 expressed on cells (CHO cells expressing PD-L1; called 293F cells in the title and the result sentence) (human) (UniProt Q9NZQ7). In words: flow cytometry on PD-L1-expressing cells, goat anti-human IgG-PE. (Flow cytometry measures light scatter and fluorescence of single cells or particles in a stream.)

The chains behind the UniProt entries cited, without tags or fusion partners. Residues count along the entry.
UniProt Q9NZQ7, residues 19-290: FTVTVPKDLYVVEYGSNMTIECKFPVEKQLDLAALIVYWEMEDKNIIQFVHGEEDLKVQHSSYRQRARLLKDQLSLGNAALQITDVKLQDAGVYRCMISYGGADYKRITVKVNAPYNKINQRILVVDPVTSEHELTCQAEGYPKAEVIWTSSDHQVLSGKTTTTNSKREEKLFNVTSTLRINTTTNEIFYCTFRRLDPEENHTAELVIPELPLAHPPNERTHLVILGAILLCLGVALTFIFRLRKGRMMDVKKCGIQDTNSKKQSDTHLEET

No constants are given. Whether binding was seen depends on the method and setting. Some results given as binding are weak or reduced against the parent protein; the word gives no strength.

B1: JS003 (humanized anti-PD-L1 antibody, clone 30) (antibody, human IgG4 S228P, kappa, V domains shown)
VH: QGQLQESGPSLVKPSQTLSLTCTVSGDSITRGYWNWIRKHPGKGLEYIGYISYTGSTYSNLSLKSRVTISRDTSKNQYYLKLSSVTAADTAVYYCATSTGWLDPVDYWGQGTLVTVSS
VL: DIVMTQSPDSLAVSLGERATINCKASQNVDTSVAWFQQKPGQPPKALIYSASFRYSGVPDRFSGSGSGTDFTLTISSLQAEDVAVYFCQQYYGYPFTFGQGTKLEIKR
On to B1, for which the binding result is “binds”.

The values above are taken from patent publication CN112741804A.
